## Library screening results

Protein sequences, listed by entry. Tags and fused reporters are not part of them.
UniProt E9BF75, entry or part of it: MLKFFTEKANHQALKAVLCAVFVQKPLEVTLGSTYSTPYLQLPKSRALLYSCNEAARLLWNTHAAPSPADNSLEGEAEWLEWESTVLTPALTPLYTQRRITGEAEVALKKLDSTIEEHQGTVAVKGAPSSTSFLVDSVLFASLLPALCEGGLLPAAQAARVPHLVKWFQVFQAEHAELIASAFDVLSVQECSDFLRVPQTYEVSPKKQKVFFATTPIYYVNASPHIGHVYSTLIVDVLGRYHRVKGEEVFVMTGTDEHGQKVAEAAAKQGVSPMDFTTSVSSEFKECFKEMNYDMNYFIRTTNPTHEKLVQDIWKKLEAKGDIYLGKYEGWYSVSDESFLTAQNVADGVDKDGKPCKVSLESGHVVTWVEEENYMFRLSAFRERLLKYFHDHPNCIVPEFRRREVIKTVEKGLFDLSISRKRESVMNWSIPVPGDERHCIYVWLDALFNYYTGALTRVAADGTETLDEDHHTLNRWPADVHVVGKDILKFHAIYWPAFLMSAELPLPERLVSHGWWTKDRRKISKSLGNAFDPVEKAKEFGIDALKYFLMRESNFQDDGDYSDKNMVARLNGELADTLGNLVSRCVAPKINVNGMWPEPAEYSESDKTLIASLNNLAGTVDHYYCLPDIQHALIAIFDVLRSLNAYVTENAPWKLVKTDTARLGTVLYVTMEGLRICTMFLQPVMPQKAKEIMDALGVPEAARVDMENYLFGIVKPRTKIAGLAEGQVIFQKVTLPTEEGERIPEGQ

Data taken from ChEMBL document CHEMBL3988442, “University of Dundee, Small-Polar-MMV Screening Library” (2021).

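Primary screen of methionyl-tRNA synthetase; the read-out is not stated. Target: Methionyl-tRNA synthetase (putative), Leishmania donovani (UniProt E9BF75). The test concentration is not given. The values are filed as inhibition. Size under these conditions: about 68,000 compounds, about 24 of them at 50% or above in at least one test.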

Results are percentages, as filed. The record does not define 0% and 100%; most values in the screen are far below 50% and negative numbers occur (in some assays of this library far below -100). The compounds are a random part of those screened.

compound: CCC(C)N(C)S(=O)(=O)c1ccc(CCNC(C)=O)s1 (configuration not stated)
Inhibition: 13.27%

compound: Cc1nc(O)cc(C2CCN(C(=O)CN(C)c3ccccc3)CC2)n1
Inhibition: 11.17%

compound: CC1CN(C(=O)CN(Cc2ccco2)C2CC2)CCO1 (configuration not stated)
Inhibition: 14.58%

compound: CCN(Cc1nc2c(cnn2C)c(=O)[nH]1)c1cccc(C)c1
Inhibition: 16.91%

compound: CCOCCN1CCN(Cc2nnc(-c3ccco3)o2)CC1
Inhibition: 10.68%

compound: CCN(CCO)Cc1cn(-c2cccc(F)c2)nc1-c1ccc(C)o1
Inhibition: 7.521%

compound: Cc1cccc(CN2CCC23CCCNC3)n1 (configuration not stated)
Inhibition: 18.49%

compound: Cn1cnnc1C1CCCN(C(=O)c2cc(-c3ccccc3)on2)C1 (configuration not stated)
Inhibition: 14.71%

compound: COC(=O)c1cc2c(OC)c(OC)c(OC)cc2[nH]1
Inhibition: 10.21%

compound: Cc1cc(N2CCN(C(=O)c3cnn(C(C)C)c3)CC2)nc(N)n1
Inhibition: 8.184%

compound: CCc1cc(NCCCNS(C)(=O)=O)nc(-c2ccncc2)n1
Inhibition: 8.101%

compound: O=C(NCCCn1nc2ccccn2c1=O)Nc1ccccc1Cl
Inhibition: 12.58%

compound: CCOc1cccc(C(C)NCc2ccc(OC)c(OC)c2OC)c1 (configuration not stated)
Inhibition: 16.59%

compound: CC(NCc1cccc(Cl)c1)c1ccc(OCC(=O)NC2CC2)cc1 (configuration not stated)
Inhibition: 24.93%

compound: O=C(Cn1cccnc1=O)NCC1Cc2ccccc2O1 (configuration not stated)
Inhibition: 8.635%

compound: CN(Cc1ccc(F)cc1)C(=O)NCc1nnc2n1CCCCC2
Inhibition: 3.286%

compound: CCCn1nccc1C(=O)N1CCCN(CCCc2ccccc2)CC1
Inhibition: 18.5%

compound: O=C(NC(C1CC1)C1CC1)c1cccc[n+]1[O-]
Inhibition: 15.07%

compound: CN1CCC/C1=N\S(=O)(=O)c1ccc(NC(=O)c2ccc(Cl)cc2)cc1
Inhibition: 14.21%

compound: O=C([C@@H]1C[C@@H]2CCN(c3cccc(F)c3)C[C@H]2O1)N1CCCC1
Inhibition: 3.014%

compound: c1cncc(OCC2CC3(CCN(CC4CC4)CC3)CO2)c1 (configuration not stated)
Inhibition: 11.68%

compound: CN(C)CC1(O)CCN(S(=O)(=O)c2ccc(Cl)cc2)C1 (configuration not stated)
Inhibition: 6.215%

compound: Cc1nc(COc2ccc(OC3CCCCNC3=O)cc2)oc1C (configuration not stated)
Inhibition: 20.99%

compound: CC(C)c1nc(C2CCCN2CCOCC2CC2)no1 (configuration not stated)
Inhibition: 20.43%

compound: CC(NC(=O)Nc1cccnc1N1CCCC1)c1ccncc1 (configuration not stated)
Inhibition: 18.71%

compound: N#Cc1ccc(NC2CCN(CC(F)F)CC2)c(F)c1
Inhibition: 12.18%

compound: COc1ccc(CN(C(=O)C2CCCO2)c2ccncc2)cc1 (configuration not stated)
Inhibition: 3.727%

compound: CC(C)(C)C(NCC(=O)N1CCNC(=O)C1)c1ccccc1 (configuration not stated)
Inhibition: 15.57%

compound: CC(C)N(C)Cc1ccccc1CNc1ccc2nncn2n1
Inhibition: 11.71%

compound: O=C(c1cccnc1)N1CCCC(c2ccnc3nccn23)C1 (configuration not stated)
Inhibition: 5.607%

compound: O=C(CN1CCN(C(=O)c2ccccc2)CC1)Nc1ccc(Br)cn1
Inhibition: 7.551%

compound: OCCN1CCC(F)(F)C2(CCN(c3cccnc3)C2)C1 (configuration not stated)
Inhibition: 17.05%

compound: O=C(Nc1c(N2CCCC2)cccc1N1CCCC1)c1cnsn1
Inhibition: 10.08%

compound: COc1ncnc2c1CCN(C(=O)Cc1cccc(F)c1)CC2
Inhibition: 11.23%

compound: Cc1ccc2c(c1)C(=O)NCC1(CCN(C(=O)c3sccc3C)CC1)O2
Inhibition: 17.48%

compound: CC(C)(O)CCc1cccc(C(=O)NCc2cnn3cccnc23)c1
Inhibition: 9.059%

compound: Cc1nc2ccc(Cl)cn2c1CN1CCN(S(=O)(=O)N2CCCC2)CC1
Inhibition: 10.87%

compound: CCc1cc(NCCN2CCNC2=O)n2nccc2n1
Inhibition: 7.283%

compound: COc1ccc(C(C)NCc2cccs2)cc1Cn1cccn1 (configuration not stated)
Inhibition: 5.415%

compound: O=C1NCCCc2[nH]c(Cc3cccc(Cl)c3)nc21
Inhibition: 5.797%